Compound in this assay: CN[C@@H]1C[C@H]2O[C@@](C)([C@@H]1OC)n1c3ccccc3c3c4c(c5c6ccccc6n2c5c31)C(=O)NC4 [staurosporine]
The assay is described as follows: log2 fold change of tryptic peptide abundance, ligand vs vehicle (limited proteolysis) (log2 ratio); higher = more trypsin-susceptible (destabilized). The note with it: ligand concentration: 20 uM; sample: K562 cleared lysate; digestion: 4 min, 22 C (HT-PELSA RT4min, Orbitrap Astral).

Sequences of proteins named here, by UniProt entry; tags and fusion partners are left off. A change or cut given only in a name is not applied to a line headed by its entry.
UniProt Q9P2S5: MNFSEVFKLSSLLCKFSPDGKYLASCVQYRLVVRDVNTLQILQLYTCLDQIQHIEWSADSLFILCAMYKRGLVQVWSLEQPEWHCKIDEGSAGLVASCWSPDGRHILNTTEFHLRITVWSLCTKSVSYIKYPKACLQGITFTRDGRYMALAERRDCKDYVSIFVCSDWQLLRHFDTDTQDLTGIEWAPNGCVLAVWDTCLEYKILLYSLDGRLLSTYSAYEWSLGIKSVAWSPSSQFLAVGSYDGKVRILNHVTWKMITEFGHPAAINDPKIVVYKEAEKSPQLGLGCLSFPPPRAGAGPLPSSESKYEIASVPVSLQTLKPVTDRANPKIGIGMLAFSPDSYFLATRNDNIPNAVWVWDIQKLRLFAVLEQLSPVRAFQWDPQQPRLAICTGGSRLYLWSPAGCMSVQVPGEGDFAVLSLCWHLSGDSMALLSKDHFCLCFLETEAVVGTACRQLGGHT
UniProt Q9UHX1: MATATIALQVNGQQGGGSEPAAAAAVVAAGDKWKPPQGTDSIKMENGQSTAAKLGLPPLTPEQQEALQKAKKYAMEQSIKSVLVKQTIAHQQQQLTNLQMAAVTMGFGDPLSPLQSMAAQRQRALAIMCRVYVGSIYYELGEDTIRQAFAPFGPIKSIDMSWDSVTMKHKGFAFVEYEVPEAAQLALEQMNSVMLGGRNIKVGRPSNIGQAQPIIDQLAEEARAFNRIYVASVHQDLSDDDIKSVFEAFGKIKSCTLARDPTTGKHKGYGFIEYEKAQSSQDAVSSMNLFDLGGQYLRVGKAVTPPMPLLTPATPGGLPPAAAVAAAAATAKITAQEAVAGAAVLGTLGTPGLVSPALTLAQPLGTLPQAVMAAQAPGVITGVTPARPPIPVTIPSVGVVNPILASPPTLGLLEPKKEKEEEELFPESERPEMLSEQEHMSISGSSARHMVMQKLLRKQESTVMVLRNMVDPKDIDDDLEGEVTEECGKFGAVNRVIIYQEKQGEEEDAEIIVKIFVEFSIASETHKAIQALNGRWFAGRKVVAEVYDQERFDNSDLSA
UniProt Q9UJX5, whole entry: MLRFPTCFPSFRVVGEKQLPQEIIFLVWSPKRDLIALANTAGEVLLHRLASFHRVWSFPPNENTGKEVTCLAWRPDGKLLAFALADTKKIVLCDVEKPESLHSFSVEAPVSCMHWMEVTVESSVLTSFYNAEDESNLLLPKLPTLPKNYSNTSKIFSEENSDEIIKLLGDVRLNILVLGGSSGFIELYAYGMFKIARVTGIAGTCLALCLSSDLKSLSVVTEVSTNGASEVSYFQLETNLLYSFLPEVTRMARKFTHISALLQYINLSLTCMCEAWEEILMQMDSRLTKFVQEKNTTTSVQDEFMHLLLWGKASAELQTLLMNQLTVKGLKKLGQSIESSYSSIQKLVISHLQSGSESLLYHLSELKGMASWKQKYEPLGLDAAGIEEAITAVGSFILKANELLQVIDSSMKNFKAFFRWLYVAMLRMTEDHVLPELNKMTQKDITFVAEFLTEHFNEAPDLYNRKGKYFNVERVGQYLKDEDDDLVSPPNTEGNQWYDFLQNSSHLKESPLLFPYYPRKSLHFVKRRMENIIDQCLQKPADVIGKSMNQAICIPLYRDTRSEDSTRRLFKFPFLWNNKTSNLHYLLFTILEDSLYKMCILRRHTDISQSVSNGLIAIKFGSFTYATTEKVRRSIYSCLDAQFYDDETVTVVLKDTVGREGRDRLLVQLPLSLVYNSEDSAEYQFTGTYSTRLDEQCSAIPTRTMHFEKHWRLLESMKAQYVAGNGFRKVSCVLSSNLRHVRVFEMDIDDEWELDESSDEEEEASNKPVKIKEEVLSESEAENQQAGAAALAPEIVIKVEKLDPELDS
UniProt Q9UIJ7: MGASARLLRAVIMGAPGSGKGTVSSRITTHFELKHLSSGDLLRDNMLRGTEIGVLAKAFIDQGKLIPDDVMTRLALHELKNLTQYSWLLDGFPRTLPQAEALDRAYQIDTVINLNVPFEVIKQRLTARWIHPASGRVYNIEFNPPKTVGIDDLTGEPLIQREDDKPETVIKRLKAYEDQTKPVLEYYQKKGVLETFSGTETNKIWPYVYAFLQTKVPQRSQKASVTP
UniProt Q9NZN8, whole entry: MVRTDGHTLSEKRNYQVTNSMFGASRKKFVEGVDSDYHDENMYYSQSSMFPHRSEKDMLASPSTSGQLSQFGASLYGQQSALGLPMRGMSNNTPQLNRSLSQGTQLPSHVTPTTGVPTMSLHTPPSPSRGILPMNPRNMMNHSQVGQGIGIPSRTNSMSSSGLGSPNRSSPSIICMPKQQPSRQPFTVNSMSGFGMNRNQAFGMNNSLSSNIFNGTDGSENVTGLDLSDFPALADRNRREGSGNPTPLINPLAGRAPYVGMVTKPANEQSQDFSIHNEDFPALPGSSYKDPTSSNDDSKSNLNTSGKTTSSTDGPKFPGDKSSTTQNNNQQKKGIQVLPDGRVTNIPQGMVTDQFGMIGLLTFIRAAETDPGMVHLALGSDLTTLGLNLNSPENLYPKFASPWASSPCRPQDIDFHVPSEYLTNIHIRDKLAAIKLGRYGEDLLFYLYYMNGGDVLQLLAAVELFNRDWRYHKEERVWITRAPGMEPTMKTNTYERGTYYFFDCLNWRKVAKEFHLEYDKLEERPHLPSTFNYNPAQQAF
UniProt Q9UGC7: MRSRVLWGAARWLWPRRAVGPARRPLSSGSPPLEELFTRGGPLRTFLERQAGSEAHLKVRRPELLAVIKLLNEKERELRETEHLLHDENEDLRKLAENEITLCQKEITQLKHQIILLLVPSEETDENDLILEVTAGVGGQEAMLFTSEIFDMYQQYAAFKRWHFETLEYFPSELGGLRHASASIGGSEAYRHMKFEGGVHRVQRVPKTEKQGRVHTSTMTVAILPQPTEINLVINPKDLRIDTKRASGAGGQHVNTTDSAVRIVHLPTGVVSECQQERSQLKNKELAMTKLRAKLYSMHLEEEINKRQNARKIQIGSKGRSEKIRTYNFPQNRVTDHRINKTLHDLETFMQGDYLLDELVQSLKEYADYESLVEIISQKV
UniProt Q9UHB9: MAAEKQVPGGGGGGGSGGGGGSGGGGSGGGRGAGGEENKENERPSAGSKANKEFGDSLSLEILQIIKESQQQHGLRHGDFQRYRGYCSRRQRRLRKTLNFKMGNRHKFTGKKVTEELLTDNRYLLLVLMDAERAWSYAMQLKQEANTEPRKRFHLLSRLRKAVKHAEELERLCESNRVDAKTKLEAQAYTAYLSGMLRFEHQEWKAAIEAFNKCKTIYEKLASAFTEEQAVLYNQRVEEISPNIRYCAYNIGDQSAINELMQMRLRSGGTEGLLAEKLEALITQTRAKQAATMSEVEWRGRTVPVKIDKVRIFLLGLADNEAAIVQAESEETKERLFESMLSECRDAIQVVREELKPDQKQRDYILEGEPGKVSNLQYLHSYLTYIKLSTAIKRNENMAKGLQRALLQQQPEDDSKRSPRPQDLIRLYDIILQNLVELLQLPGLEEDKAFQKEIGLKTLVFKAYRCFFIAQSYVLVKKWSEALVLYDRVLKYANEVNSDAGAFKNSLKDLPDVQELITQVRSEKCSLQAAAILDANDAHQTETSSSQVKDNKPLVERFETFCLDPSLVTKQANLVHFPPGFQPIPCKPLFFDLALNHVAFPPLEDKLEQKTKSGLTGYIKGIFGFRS
UniProt Q9UHA4, whole entry: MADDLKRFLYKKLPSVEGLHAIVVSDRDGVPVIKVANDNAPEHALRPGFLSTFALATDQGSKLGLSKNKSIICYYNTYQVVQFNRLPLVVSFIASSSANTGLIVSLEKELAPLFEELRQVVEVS
UniProt Q9UJX6, whole entry: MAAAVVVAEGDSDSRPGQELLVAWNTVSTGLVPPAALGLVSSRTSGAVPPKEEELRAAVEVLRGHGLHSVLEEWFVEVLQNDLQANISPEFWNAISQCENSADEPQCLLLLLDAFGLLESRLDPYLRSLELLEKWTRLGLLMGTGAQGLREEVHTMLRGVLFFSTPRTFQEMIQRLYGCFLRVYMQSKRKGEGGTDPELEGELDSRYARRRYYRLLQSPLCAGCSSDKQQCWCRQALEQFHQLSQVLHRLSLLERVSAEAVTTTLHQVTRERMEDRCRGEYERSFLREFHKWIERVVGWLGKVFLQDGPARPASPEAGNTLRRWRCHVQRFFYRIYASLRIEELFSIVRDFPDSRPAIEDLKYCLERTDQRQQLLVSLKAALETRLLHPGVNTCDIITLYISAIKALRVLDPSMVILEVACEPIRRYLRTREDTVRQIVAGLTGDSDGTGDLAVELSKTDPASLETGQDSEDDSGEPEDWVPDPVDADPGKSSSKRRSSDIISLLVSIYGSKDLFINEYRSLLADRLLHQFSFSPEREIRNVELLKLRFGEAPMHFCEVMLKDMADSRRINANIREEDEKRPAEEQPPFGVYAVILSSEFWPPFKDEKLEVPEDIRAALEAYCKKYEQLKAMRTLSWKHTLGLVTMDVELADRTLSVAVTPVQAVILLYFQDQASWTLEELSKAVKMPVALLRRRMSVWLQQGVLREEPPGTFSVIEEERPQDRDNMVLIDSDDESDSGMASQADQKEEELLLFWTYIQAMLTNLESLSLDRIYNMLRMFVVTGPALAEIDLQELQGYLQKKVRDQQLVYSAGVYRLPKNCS
UniProt Q9UIY3: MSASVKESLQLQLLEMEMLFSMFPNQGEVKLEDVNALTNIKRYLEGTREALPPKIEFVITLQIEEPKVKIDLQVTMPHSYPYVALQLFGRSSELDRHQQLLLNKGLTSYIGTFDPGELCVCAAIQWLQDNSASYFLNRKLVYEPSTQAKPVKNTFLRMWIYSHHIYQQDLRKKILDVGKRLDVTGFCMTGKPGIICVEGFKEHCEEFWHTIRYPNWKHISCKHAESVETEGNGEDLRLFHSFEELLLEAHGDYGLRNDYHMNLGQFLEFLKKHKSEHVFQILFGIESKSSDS
UniProt Q9UHD9, whole entry: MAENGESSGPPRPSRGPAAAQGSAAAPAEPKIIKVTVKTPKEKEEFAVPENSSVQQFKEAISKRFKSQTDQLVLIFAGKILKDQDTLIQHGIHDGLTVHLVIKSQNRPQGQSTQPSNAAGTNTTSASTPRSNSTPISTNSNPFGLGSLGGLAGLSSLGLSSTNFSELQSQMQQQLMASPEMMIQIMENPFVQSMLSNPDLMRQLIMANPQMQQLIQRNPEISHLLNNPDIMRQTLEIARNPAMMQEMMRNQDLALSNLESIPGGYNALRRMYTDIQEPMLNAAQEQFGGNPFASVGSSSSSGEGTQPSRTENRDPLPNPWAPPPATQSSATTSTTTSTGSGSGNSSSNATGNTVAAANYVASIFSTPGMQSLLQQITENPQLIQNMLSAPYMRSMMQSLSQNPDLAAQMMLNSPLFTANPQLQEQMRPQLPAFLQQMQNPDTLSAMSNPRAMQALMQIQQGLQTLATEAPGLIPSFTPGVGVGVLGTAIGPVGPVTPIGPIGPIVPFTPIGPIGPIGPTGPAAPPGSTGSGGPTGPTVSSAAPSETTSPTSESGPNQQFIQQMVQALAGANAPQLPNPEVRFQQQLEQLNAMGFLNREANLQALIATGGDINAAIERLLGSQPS
UniProt Q9NZB2: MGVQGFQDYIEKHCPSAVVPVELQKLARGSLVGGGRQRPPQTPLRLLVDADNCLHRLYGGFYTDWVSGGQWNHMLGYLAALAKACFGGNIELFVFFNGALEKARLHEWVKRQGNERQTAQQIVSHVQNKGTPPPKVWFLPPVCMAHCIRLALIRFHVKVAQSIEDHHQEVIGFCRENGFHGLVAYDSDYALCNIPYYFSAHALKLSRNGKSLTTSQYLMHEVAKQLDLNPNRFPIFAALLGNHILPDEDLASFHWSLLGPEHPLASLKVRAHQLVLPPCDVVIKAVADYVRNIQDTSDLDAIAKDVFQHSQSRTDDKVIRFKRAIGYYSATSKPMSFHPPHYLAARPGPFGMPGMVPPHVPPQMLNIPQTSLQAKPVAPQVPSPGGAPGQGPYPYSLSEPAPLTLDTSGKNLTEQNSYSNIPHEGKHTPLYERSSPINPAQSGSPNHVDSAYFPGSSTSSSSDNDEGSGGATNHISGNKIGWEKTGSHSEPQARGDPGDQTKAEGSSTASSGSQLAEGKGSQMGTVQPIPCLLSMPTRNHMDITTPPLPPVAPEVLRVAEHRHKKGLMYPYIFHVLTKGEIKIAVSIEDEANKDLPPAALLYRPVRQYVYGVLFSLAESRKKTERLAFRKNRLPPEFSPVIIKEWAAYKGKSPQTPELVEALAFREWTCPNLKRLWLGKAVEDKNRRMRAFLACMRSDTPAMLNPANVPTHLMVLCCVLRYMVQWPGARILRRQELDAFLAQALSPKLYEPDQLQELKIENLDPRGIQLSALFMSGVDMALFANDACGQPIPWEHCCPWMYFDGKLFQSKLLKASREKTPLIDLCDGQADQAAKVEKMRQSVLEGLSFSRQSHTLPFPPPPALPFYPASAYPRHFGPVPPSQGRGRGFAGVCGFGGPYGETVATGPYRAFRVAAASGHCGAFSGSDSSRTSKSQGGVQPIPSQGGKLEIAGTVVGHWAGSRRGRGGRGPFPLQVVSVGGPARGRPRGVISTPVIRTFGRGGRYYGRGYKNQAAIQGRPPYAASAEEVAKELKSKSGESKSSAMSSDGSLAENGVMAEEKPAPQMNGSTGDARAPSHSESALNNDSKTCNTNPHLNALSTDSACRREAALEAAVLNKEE

The values that follow come from the supplement of paper PMC12819154, “High-throughput peptide-centric local stability assay extends protein–ligand identification to membrane proteins, tissues and bacteria” (Nature Structural & Molecular Biology, 2025).

The list shows a part of the results. Small differences around the control level are noise.

Turning to “CEP72 (peptide sequence: HLLSPQLVQYQCGDSGK, peptide start residue: 234) (UniProt Q9P209)”, the log2 fold change was -0.584. The figure for “C9orf78 (peptide sequence: VGDTEKPEPER, peptide start residue: 250) (UniProt Q9NZ63)” is 0.384; for “TMOD2 (peptide sequence: NIDEDELLGKLSEEELK, peptide start residue: 14) (UniProt Q9NZR1)” it is -0.34. The figure for “UniProt Q9P2S5 (peptide sequence: MITEFGHPAAINDPK, peptide start residue: 257)” is -0.412; for “PUF60 (peptide sequence: KYAMEQSIK, peptide start residue: 72) (UniProt Q9UHX1)” it is 0.236.

For “SAP30BP (peptide sequence: IPPEPPGR, peptide start residue: 119) (UniProt Q9UHR5)”, the log2 fold change was -0.314.

Regarding “ANAPC4 (peptide sequence: GKYFNVER, peptide start residue: 467) (UniProt Q9UJX5)”, the log2 fold change is -0.621. Regarding “POLK (peptide sequence: HTLDIFFK, peptide start residue: 863) (UniProt Q9UBT6)”, the log2 fold change was 0.178. Consider “TCF20 (peptide sequence: LQESCWDLSR, peptide start residue: 1184) (UniProt Q9UGU0)”, for which the log2 fold change came to 0.504. For the target “AK3 (peptide sequence: AYEDQTKPVLEYYQK, peptide start residue: 175) (UniProt Q9UIJ7)”, the log2 fold change was -0.53. The figure for “CRIPT (peptide sequence: GICAMCGKK, peptide start residue: 81) (UniProt Q9P021)” is 0.253. The value for “UniProt Q9UJA3 (peptide sequence: AGLALALFGGSQK, peptide start residue: 422)” was 0.336; that for “DDX20 (peptide sequence: VFEEKTQHLQELFSR, peptide start residue: 292) (UniProt Q9UHI6)” was -0.615; that for “UniProt Q9UK76 (peptide sequence: MASNIFGTPEENQASWAK, peptide start residue: 47)” was -0.112. The value for “NCKIPSD (peptide sequence: LLLLLNRGDDPVR, peptide start residue: 590) (UniProt Q9NZQ3)” was 0.322; that for “ZNHIT2 (peptide sequence: EERDHLYR, peptide start residue: 328) (UniProt Q9UHR6)” was -0.649; that for “CNOT2 (peptide sequence: TTSSTDGPKFPGDKSSTTQNNNQQK, peptide start residue: 308) (UniProt Q9NZN8)” was -0.355. As for “IBTK (peptide sequence: VNFHEDDNQK, peptide start residue: 671) (UniProt Q9P2D0)”, the log2 fold change stood at 0.473. The figure for “VAPA (peptide sequence: KLMEECKR, peptide start residue: 174) (UniProt Q9P0L0)” is 0.244; for “IGF2BP1 (peptide sequence: IIGHFYASQMAQR, peptide start residue: 539) (UniProt Q9NZI8)” it is -0.148. For “NRBP1 (peptide sequence: FHKYWADIKENK, peptide start residue: 132) (UniProt Q9UHY1)”, the log2 fold change is -0.56.

As for “MTRF1L (peptide sequence: VRRPELLAVIK, peptide start residue: 59) (UniProt Q9UGC7)”, the log2 fold change is 0.304. The value for “ZMYM2 (peptide sequence: HFCDQHCLLR, peptide start residue: 789) (UniProt Q9UBW7)” was 0.245. The figure for “IPO11 (peptide sequence: MLALKDPVHTVSLQQFIYEK, peptide start residue: 921) (UniProt Q9UI26)” is -0.133; for “SPG21 (peptide sequence: GSLGISQEEQ, peptide start residue: 299) (UniProt Q9NZD8)” it is -0.216.

In the case of “UniProt Q9UK39 (peptide sequence: TNQVAIAQTLECKESGR, peptide start residue: 262)”, the log2 fold change is -0.292.

As for “UniProt Q9UK11 (peptide sequence: DVMLENFR, peptide start residue: 35)”, the log2 fold change worked out at 0.0325. The value for “CCDC88C (peptide sequence: LELELTR, peptide start residue: 328) (UniProt Q9P219)” was -0.249. For the target “SRP68 (peptide sequence: AAIEAFNK, peptide start residue: 206) (UniProt Q9UHB9)”, the log2 fold change came out at 0.245. The value for “HOOK1 (peptide sequence: LEAAKDDYR, peptide start residue: 261) (UniProt Q9UJC3)” was -0.278. The figure for “XPR1 (peptide sequence: KPVFHLSHEER, peptide start residue: 112) (UniProt Q9UBH6)” is 0.368; for “DNAJB4 (peptide sequence: IIGYGLPFPK, peptide start residue: 293) (UniProt Q9UDY4)” it is 0.302; for “SPAST (peptide sequence: VYVSLPNEETR, peptide start residue: 504) (UniProt Q9UBP0)” it is 0.137. The figure for “UniProt Q9UHA4 (peptide sequence: ELAPLFEELR, peptide start residue: 109)” is 0.00283. Regarding “UniProt Q9UK61 (peptide sequence: TVLGEYNLFSR, peptide start residue: 1020)”, the log2 fold change was -0.701. The value for “UniProt Q9UII5 (peptide sequence: AFNLSSNLTTHK, peptide start residue: 756)” was -0.719; that for “RNF14 (peptide sequence: IYLDLPQNFK, peptide start residue: 38) (UniProt Q9UBS8)” was -0.346. For “CWC15 (peptide sequence: RRWDDDVVFK, peptide start residue: 186) (UniProt Q9P013)”, the log2 fold change was -0.184.

Turning to “BAHCC1 (peptide sequence: SEAAYGTNTAR, peptide start residue: 719) (UniProt Q9P281)”, the log2 fold change worked out at 0.377. Regarding “RNF181 (peptide sequence: YELPTDDDTYEEHRR, peptide start residue: 118) (UniProt Q9P0P0)”, the log2 fold change is 0.172. The value for “ARHGAP28 (peptide sequence: FGLTEAGDLSAEDMKK, peptide start residue: 327) (UniProt Q9P2N2)” was -0.726.

With “ANAPC2 (peptide sequence: TFQEMIQR, peptide start residue: 168) (UniProt Q9UJX6)”, the log2 fold change is 0.274. The value for “MRPL15 (peptide sequence: KYGYILPDITKDELFK, peptide start residue: 239) (UniProt Q9P015)” was -0.478. The value for “RWDD2A (peptide sequence: HKSEHVFQILFGIESK, peptide start residue: 273) (UniProt Q9UIY3)” was -0.403; that for “UniProt Q9P0J6 (peptide sequence: CKDCYLVK, peptide start residue: 76)” was -0.261; that for “UBQLN2 (peptide sequence: NPEISHLLNNPDIMR, peptide start residue: 218) (UniProt Q9UHD9)” was 0.0245. For “USP36 (peptide sequence: AVEEDGHLK, peptide start residue: 968) (UniProt Q9P275)”, the log2 fold change was 0.514. The value for “MRPL35 (peptide sequence: EFVFCNK, peptide start residue: 146) (UniProt Q9NZE8)” was 0.308.

As for “RCC2 (peptide sequence: LIEGLSHEVIVSAACGR, peptide start residue: 195) (UniProt Q9P258)”, the log2 fold change came to 0.292.

Take “DNAJB11 (peptide sequence: FQMTQEVVCDECPNVK, peptide start residue: 185) (UniProt Q9UBS4)”: the log2 fold change was -0.219. The value for “EHD2 (peptide sequence: VVGTPEVLR, peptide start residue: 243) (UniProt Q9NZN4)” was 0.172; that for “NDUFA12 (peptide sequence: MELVQVLKR, peptide start residue: 1) (UniProt Q9UI09)” was 0.379; that for “UniProt Q9P0U3 (peptide sequence: KTSSGLSNSFAGK, peptide start residue: 124)” was 0.736. The value for “ING1 (peptide sequence: MLHCVQR, peptide start residue: 213) (UniProt Q9UK53)” was 0.634; that for “ABCF2 (peptide sequence: SKLVDEEPQLTKR, peptide start residue: 607) (UniProt Q9UG63)” was 0.233; that for “AHSP (peptide sequence: SHELPSHPPPSS, peptide start residue: 91) (UniProt Q9NZD4)” was 0.0248.

“UniProt Q9UI47 (peptide sequence: NLMNAVVQTVK, peptide start residue: 824)”: the log2 fold change was -0.00591. The figure for “HECW2 (peptide sequence: ADDGSLTSQTK, peptide start residue: 497) (UniProt Q9P2P5)” is -0.348; for “UniProt Q9UIF7 (peptide sequence: SQVSSPCSR, peptide start residue: 508)” it is -0.0165; for “PFDN2 (peptide sequence: LMGEDEKPAAKENSEGAGAK, peptide start residue: 126) (UniProt Q9UHV9)” it is -0.309. The value for “NARF (peptide sequence: GTHSLDIK, peptide start residue: 448) (UniProt Q9UHQ1)” was 0.16. “FAM120A (peptide sequence: SPQTPELVEALAFR, peptide start residue: 652) (UniProt Q9NZB2)”: the log2 fold change was 0.925.
